Source: the supplement of paper PMC7824004
The list shows a part of the results. The data scatter; read single values as rough.

These compounds were tested on Candida albicans SN425 (assay: biofilm OD600 B-score; higher = more biofilm (less inhibition)). Settings: 10 µM; assay detail: High-throughput adherence inhibition optical density biofilm assay with C. albicans SN425 in RPMI-1640/MOPS pH 7.0, 384-well plates. ….
Protocol: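 High-throughput adherence inhibition optical density biofilm assay with C. albicans SN425 in RPMI-1640/MOPS pH 7.0, 384-well plates. Compound (10 µM) was present only during the 90 min adherence step, then washed out, and the biofilm grew 24 h without compound. Biofilm was read as OD600 after removing the media. Scores are the difference from the mean in standard deviations and the plate B-score.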
`c1cc(CNc2ccc3c(c2)CCC3)ccn1` was tested, and the “biofilm OD600 B-score” value was 0.0188.
In the case of `O=C(NCCc1ccccc1)c1cnccn1`, the “biofilm OD600 B-score” value is reported as -1.
For `COc1ccc(CCNC(=O)C(C)C)cc1OC`, the “biofilm OD600 B-score” value was -2.15.
`COc1cc(NC(=O)c2ccccc2)c(Cl)cc1NC(C)=O` was tested, and the “biofilm OD600 B-score” value was 1.08.
In the case of `CC(=O)NC1=C(N(C)C)C(=O)c2ccccc2C1=O`, the “biofilm OD600 B-score” value is reported as 2.09.
In the case of `CCCC(=O)Nc1ccccc1NC(=O)c1ccc(Br)o1`, the “biofilm OD600 B-score” value is reported as -0.378.
In the case of `CCN(CC)C(=O)CNS(=O)(=O)c1ccc(C)cc1`, the “biofilm OD600 B-score” value is reported as -2.64.
`CCCN1C(=O)c2ccc(C(=O)O)cc2C1=O` was tested, and the “biofilm OD600 B-score” value was 1.41.
For `Cc1sc2nc(SCC(=O)N3CCN(CCO)CC3)[nH]c(=O)c2c1C`, the “biofilm OD600 B-score” value was -1.53.
`O=C(O)CNC(=O)NC12CC3CC(CC(C3)C1)C2` was tested, and the “biofilm OD600 B-score” value was -3.55.
For `Cc1ccc(C(=O)Nc2ccc(Cl)cc2F)o1`, the “biofilm OD600 B-score” value was 0.0144.
In the case of `Cc1cc(NO)nc(-c2ccc(Br)cc2)n1`, the “biofilm OD600 B-score” value is reported as -1.23.
With `CCCCC(=O)Nc1ccc(NC(=O)c2ccco2)cc1OC` the “biofilm OD600 B-score” value was -0.169.
`CC(C)(O)C#CCN1CCCCC1` was tested, and the “biofilm OD600 B-score” value was -1.91.
With `Cc1ccc(S(=O)(=O)NC(C)(C)C)cc1` the “biofilm OD600 B-score” value was 2.12.
With `Cc1ccnc(NS(=O)(=O)c2ccc(NC(=O)C3CCCO3)cc2)n1` (stereo not given) the “biofilm OD600 B-score” value was 0.335.
With `Cc1cccc(NS(=O)(=O)c2ccccc2)n1` the “biofilm OD600 B-score” value was -1.61.
`CC(=O)Nc1ccc(S(=O)(=O)n2cccn2)cc1` was tested, and the “biofilm OD600 B-score” value was -1.9.
For `O=C(Cc1ncc(-c2ccccc2)cn1)c1ccccc1`, the “biofilm OD600 B-score” value was 1.75.
In the case of `COCc1cc(=O)n2[nH]c(C)c(-c3ccc(Cl)cc3)c2n1`, the “biofilm OD600 B-score” value is reported as -0.758.
For `Cc1ccc(OCCCN(C)C)cc1C`, the “biofilm OD600 B-score” value was 0.273.
For `COc1cccc(CNc2ccc(F)c(Cl)c2)c1OC`, the “biofilm OD600 B-score” value was -0.325.
`C=CCNS(=O)(=O)c1ccc(OC)cc1` was tested, and the “biofilm OD600 B-score” value was 1.86.
For `Cc1nc2ccccc2c(C(=O)O)c1-c1ccccc1`, the “biofilm OD600 B-score” value was 0.213.
With `Cc1ccc2c(c1)n([O-])c1c([n+]2=O)CCCC1` the “biofilm OD600 B-score” value was -4.44.
`CC(=O)N(C)c1ccc(NC(=O)CCCc2ccccc2)cc1` was tested, and the “biofilm OD600 B-score” value was 0.23.
With `N#Cc1cc2c(nc1SCC(N)=O)CCCC2` the “biofilm OD600 B-score” value was 0.069.
In the case of `O=C(Nc1ccc2c(c1)OCCO2)c1ccc(CN2CCOCC2)cc1`, the “biofilm OD600 B-score” value is reported as 0.111.
With `CN(C(=O)CSc1nnn(C)n1)c1ccccc1` the “biofilm OD600 B-score” value was -0.795.
`O=C(NC1CC1)c1cc(C(=O)NC2CC2)cc(C(=O)NC2CC2)c1` was tested, and the “biofilm OD600 B-score” value was 1.67.
`Cc1ccc(C(=O)Nc2nc(C)c(C(=O)N(C)C)s2)o1` was tested, and the “biofilm OD600 B-score” value was 3.12.
For `Cc1ccccc1OCCN1CCCCC1`, the “biofilm OD600 B-score” value was 0.362.
With `Cn1c(NC(=O)c2cccc(F)c2)cc(=O)n(C)c1=O` the “biofilm OD600 B-score” value was 1.75.
For `CCOc1ccc(C(C)(CC(=O)O)C(=O)O)cc1` (stereo not given), the “biofilm OD600 B-score” value was 0.155.
With `O=S(=O)(Nc1ccc2c(c1)OCO2)c1ccccc1` the “biofilm OD600 B-score” value was -0.393.
With `N#CCCn1cc(CO)c(-c2ccc(F)cc2)n1` the “biofilm OD600 B-score” value was -0.0162.
For `CC1CCN(CC(O)COc2ccc3c(c2)CCC3)CC1` (stereo not given), the “biofilm OD600 B-score” value was 1.53.
`O=C(Cc1ccccc1)N1CCC(C(=O)N2CCN(c3ccccc3)CC2)CC1` was tested, and the “biofilm OD600 B-score” value was -1.74.
In the case of `CN1CCC(N(C)Cc2c(F)cccc2Cl)CC1`, the “biofilm OD600 B-score” value is reported as -4.09.
`Cc1cc(=O)n(C)c(=O)n1CCCCO` was tested, and the “biofilm OD600 B-score” value was 0.732.
